Some entries share one result that the patent states for a list of compounds.
Tested on: wild type (WT) mice (C57BL/6)
Assay: Serum cholesterol and HDL in 13 day study
Assay type: in vivo, mouse
Details: 10 mg/kg, repeated 13 day study
Description: Male WT mice (C57BL/6 strain, aged 9-10 weeks, 17-27 g) obtained from Jackson Laboratory (Bar Harbor, Me.) were fed a normal chow (Harland-Teklad, Diet 2918) through out the duration of the experiment. […] Naïve mice were also set aside as naïve control group.
Animals were sacrificed and livers were extracted and prepared as in Example 11.
The HDL levels for the animals in Example 13 were also examined.

B1: 16F12: anti-PCSK9 antibody; light/heavy variable region SEQ ID NO 35/79 (antibody, listed as Homo sapiens, V domains shown)
VH: QVHLVESGGGVVQPGRSLRLSCAASGFTFNSFGMHWVRQAPGKGLEWVALIWSDGSDEYYADSVKGRFTISRDNSKNTLYLQMNSLRAEDTAVYYCARAIAALYYYYGMDVWGQGTTVTVSS
VL: QSVLTQPPSVSAAPGQKVTISCSGSSSNIGNNFVSWYQQLPGTAPKLLIYDYNKRPSGIPDRFSGSKSGTSATLGITGLQTGDEADYYCGTWDSSLSAYVFGTGTRVTVL
duration of benefit after a single dose: ≥ 10 days
